Measurements from the M2OR odorant receptor database.
This is a selection; strong and weak results do not stand in their true shares. The calls were merged from several studies; some rest on single wells. The list shows a part of the results.

Experiments:
Conditions in all cases: stereoisomer not certain
OR4F4 = system: T1, OR4F4
T1 sequence (whole entry): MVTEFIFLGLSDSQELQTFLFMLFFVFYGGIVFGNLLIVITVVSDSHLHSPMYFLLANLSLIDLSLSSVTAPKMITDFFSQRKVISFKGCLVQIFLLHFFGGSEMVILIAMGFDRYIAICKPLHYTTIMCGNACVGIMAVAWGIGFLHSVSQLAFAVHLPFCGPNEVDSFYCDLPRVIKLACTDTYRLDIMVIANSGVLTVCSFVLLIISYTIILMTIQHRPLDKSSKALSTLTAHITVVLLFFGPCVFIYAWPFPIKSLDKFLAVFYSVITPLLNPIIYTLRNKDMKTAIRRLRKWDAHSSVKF
In short: (§1)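 Values were gathered from published papers (main text and supplementary material), with extra details requested from the original authors when needed, and checked for typos and inconsistencies. Each receptor–molecule pair is called responsive (active) if the original authors judged the measured signal statistically different from baseline, and non-responsive (inactive) otherwise. Assay methods varied by source, often transient mammalian cell-line luciferase assays. Recorded details include cell line, G-protein, co-transfected protein and tags.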

OR4F6 (Homo sapiens) = target: T2, OR4F6 (Homo sapiens) (UniProt Q8NGB9)
T2 sequence (whole entry): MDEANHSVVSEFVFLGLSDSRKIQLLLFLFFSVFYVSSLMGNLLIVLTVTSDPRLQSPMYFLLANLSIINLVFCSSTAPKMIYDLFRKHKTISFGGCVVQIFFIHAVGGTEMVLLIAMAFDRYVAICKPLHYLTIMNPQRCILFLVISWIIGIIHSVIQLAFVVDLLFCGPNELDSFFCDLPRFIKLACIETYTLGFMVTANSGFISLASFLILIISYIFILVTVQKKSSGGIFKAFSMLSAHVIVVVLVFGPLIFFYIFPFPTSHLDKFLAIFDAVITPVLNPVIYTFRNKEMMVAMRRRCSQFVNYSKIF
In short: as §1

OR4K13 (Homo sapiens) = target: T3, OR4K13 (Homo sapiens) (UniProt Q8NH42)
T3 sequence (whole entry): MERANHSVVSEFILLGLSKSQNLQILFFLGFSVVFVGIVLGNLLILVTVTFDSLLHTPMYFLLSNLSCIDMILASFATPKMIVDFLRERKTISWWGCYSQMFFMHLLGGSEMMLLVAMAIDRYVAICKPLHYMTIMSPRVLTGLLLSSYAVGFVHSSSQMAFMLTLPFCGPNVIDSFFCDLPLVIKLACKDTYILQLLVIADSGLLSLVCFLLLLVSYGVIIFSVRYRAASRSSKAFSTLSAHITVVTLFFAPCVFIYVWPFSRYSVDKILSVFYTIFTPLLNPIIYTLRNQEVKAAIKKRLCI
In short: as §1

OR4K14 (Homo sapiens) = target: T4, OR4K14 (Homo sapiens) (UniProt Q8NGD5)
T4 sequence (whole entry): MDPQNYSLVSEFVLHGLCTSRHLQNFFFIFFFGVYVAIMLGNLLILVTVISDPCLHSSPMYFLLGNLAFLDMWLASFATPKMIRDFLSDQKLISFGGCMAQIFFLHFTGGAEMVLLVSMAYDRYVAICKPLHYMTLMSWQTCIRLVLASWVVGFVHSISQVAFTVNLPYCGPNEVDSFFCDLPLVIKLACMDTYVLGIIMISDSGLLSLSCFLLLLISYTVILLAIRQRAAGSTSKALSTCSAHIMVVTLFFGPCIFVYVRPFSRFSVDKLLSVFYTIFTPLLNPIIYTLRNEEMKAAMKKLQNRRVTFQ
In short: as §1

OR4K1 = system: T5, OR4K1
T5 sequence (whole entry): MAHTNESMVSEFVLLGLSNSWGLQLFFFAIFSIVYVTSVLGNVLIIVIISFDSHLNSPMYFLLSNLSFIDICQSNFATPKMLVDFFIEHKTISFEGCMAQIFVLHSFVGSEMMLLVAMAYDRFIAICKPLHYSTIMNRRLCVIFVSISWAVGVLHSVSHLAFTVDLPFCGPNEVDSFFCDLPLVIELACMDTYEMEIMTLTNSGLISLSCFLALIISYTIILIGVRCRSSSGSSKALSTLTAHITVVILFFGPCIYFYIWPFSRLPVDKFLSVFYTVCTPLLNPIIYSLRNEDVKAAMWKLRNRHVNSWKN
In short: as §1

OR4K2 (Homo sapiens) = target: T6, OR4K2 (Homo sapiens) (UniProt Q8NGD2)
T6 sequence (whole entry): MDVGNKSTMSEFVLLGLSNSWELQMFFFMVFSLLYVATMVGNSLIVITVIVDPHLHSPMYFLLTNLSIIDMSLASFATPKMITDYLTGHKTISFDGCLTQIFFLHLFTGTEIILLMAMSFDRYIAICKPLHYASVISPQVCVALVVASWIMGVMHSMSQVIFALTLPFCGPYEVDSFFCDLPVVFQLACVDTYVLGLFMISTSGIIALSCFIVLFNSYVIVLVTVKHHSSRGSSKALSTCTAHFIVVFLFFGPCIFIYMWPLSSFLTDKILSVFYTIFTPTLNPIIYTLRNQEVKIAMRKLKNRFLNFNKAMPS
In short: as §1

OR4K3 = system: T7, OR4K3
T7 sequence (whole entry): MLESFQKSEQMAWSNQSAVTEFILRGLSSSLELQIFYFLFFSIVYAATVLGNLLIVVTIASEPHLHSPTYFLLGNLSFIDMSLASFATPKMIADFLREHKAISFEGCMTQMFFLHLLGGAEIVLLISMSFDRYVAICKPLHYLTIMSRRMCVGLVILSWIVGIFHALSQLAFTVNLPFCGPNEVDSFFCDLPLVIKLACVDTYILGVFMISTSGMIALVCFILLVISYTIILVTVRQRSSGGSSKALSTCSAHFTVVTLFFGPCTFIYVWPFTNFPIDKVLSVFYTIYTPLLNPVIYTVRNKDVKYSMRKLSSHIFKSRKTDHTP
In short: as §1

OR4K5 (Homo sapiens) = target: T8, OR4K5 (Homo sapiens) (UniProt Q8NGD3)
T8 sequence (whole entry): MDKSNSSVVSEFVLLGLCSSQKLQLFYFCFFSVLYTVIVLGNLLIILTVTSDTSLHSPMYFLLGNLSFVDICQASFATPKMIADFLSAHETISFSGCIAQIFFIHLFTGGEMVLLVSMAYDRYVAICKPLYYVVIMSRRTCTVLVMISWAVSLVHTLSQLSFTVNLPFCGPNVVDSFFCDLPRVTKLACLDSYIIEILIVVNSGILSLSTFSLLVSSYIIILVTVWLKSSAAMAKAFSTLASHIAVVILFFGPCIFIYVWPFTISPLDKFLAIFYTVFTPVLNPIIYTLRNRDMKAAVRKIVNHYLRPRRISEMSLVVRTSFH
In short: as §1

OR4KF = system: T9, OR4KF
T9 sequence (whole entry): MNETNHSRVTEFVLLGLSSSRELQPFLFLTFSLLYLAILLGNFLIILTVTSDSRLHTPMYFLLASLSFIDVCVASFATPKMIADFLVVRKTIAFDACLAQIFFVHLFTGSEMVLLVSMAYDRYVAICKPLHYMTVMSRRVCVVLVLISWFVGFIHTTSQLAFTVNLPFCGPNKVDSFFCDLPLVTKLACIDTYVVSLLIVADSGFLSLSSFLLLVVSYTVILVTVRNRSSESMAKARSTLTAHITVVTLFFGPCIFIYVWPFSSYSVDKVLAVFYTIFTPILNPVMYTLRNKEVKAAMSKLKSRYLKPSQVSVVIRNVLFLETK
In short: as §1

OR4KH = system: T10, OR4KH
T10 sequence (whole entry): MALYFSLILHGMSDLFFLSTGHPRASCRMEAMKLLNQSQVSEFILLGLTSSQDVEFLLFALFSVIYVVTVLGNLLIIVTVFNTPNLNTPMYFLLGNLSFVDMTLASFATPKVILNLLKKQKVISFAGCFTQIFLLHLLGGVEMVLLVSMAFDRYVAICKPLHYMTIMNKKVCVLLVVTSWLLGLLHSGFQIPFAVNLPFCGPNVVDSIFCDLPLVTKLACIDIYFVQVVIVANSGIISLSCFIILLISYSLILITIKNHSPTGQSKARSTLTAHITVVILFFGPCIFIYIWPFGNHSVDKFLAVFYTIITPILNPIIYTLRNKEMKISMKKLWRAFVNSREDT
In short: as §1

OR4L1 = system: T11, OR4L1
T11 sequence (whole entry): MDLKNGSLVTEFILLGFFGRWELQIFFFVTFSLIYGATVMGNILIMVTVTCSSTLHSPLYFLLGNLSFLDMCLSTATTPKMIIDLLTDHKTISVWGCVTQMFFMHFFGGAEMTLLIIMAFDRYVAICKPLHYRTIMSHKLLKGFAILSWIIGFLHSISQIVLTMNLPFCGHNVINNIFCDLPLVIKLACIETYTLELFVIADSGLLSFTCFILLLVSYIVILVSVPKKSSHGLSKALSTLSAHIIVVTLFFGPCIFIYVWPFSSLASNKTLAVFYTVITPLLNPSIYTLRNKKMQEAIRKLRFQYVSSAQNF
In short: as §1

OR4M1 (Homo sapiens) = target: T12, OR4M1 (Homo sapiens) (UniProt Q8NGD0)
T12 sequence (whole entry): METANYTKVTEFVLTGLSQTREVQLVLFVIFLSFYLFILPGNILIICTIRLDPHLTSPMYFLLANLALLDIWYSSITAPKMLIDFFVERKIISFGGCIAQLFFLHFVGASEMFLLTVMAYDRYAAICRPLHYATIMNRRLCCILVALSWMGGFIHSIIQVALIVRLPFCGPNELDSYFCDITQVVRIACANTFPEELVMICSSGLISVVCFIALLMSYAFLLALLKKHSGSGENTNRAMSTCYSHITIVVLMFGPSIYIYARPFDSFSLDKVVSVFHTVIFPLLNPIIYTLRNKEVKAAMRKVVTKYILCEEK
In short: as §1

OR4N2 (Homo sapiens) = target: T13, OR4N2 (Homo sapiens) (UniProt Q8NGD1)
T13 sequence (whole entry): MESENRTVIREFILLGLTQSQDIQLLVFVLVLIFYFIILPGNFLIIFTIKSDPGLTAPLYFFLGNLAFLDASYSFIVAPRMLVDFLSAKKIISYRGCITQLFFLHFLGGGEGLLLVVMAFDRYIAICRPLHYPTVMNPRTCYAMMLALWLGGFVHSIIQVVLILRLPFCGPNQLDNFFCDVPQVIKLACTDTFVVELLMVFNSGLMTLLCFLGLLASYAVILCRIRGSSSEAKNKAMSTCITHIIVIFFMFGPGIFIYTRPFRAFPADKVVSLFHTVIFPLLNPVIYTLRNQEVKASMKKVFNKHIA
In short: as §1

Row | SMILES | odorant receptor agonist call (OR4F4) | odorant receptor agonist call (OR4F6 (Homo sapiens)) | odorant receptor agonist call (OR4K13 (Homo sapiens)) | odorant receptor agonist call (OR4K14 (Homo sapiens)) | odorant receptor agonist call (OR4K1) | odorant receptor agonist call (OR4K2 (Homo sapiens)) | odorant receptor agonist call (OR4K3) | odorant receptor agonist call (OR4K5 (Homo sapiens)) | odorant receptor agonist call (OR4KF) | odorant receptor agonist call (OR4KH) | odorant receptor agonist call (OR4L1) | odorant receptor agonist call (OR4M1 (Homo sapiens)) | odorant receptor agonist call (OR4N2 (Homo sapiens))
1 | CC(C)(C)c1ccc(CCC=O)cc1 | active | inactive | inactive | inactive | inactive | inactive | inactive | inactive | inactive | inactive | inactive | inactive | inactive
2 | CC1=NC(C)SC1C (stereo not drawn) |  | inactive | inactive | inactive | inactive | inactive | inactive | inactive |  | inactive | inactive |  | inactive
3 | O=CCc1ccccc1 | active | inactive | inactive | inactive | inactive | inactive | inactive | inactive | active | inactive | inactive | active | active
4 | CC(=O)OCC=C(C)CCC=C(C)C | active | inactive | inactive | inactive | inactive | inactive | inactive | inactive | active | inactive | active | active | inactive
5 | CC12CCC(C1)C(C)(C)C2=O (stereo not drawn) | inactive | inactive | inactive | inactive | inactive | inactive | inactive | inactive | inactive | inactive | inactive | inactive | inactive
6 | CC(=O)OC1CC2CCC1(C)C2(C)C (stereo not drawn) | active | inactive | inactive | inactive | inactive | inactive | inactive | inactive | inactive | inactive | inactive | inactive | inactive
7 | c1ccc(Oc2ccccc2)cc1 | inactive | inactive | inactive | inactive | inactive | inactive | inactive | inactive | inactive | inactive | inactive | inactive | inactive
8 | CCCCCCCC=O | inactive | inactive | inactive | inactive | inactive | inactive | inactive | inactive | inactive | inactive | inactive | inactive | inactive
9 | CC1=CCC(C(C)(C)O)CC1 (stereo not drawn) | active | inactive | inactive | inactive | inactive | inactive | inactive | inactive | inactive | inactive | inactive | inactive | inactive
10 | CC(=O)c1ccccc1 |  | inactive | inactive | inactive | inactive | inactive | active | inactive |  | inactive | inactive |  | active
11 | COC(=O)c1ccccc1 |  | inactive | inactive | inactive | inactive | inactive | inactive | active |  | inactive | inactive |  | inactive
12 | O=C1CCCCCCCCCCCCCCO1 | inactive | inactive | inactive | inactive | inactive | inactive | inactive | inactive | inactive | inactive | inactive | inactive | inactive
13 | C=C(C)C1CCC2=CC(=O)CC(C)C2(C)C1 (stereo not drawn) | active |  |  |  |  |  |  |  | active |  |  | inactive | 
14 | CCC=CCCO | inactive | inactive | inactive | inactive | inactive | inactive | inactive | inactive | inactive | inactive | inactive | inactive | inactive
